# These are yes or no findings as the source states them, for the method shown. Some entries that bind do so weakly or less than the wild type.
# Protein sequences, listed by entry. Tags and fused reporters are not part of them. Residues count along the entry.
# UniProt P01133, residues 971-1023: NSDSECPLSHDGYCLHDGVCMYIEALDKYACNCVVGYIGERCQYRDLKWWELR
# Assays:
# [1] = target: sEGFR-MMB (dimeric sEGFR mimetibody) (human); assay: mock phage panning on sEGFR-MMB, three rounds, PCR screening
# [2] = target: sEGFR-MMB (dimeric sEGFR mimetibody) (human); assay: phage ELISA, coated sEGFR-MMB
# [3] = target: biotinylated sEGFR-MMB (human); assay: phage ELISA, biotinylated sEGFR-MMB on streptavidin
# [4] = target: sEGFR-MMB (dimeric sEGFR mimetibody) (human); assay: phage ELISA, luminescence; sEGFR-MMB coated on the wells [panel A]
# [5] = target: Control-MMB (CNTO 360) (Homo sapiens (Human)) [IgG part: P0DOX5]; assay: phage ELISA, luminescence; Control-MMB coated on the wells [panel A]
# [6] = target: biotinylated sEGFR-MMB (human); assay: phage ELISA, luminescence; biotinylated receptor captured on streptavidin [panel C]
Substance,binding [1],binding [2],binding [3],binding [4],binding [5],binding [6]
Phage displaying EGF (coat protein not stated) (from UniProt P01133 971-1023) (ligand),binds,,,,,
pIII EGF-phage (from UniProt P01133 971-1023; P69168 19-424) (ligand),,binds,,,,
pIX EGF-phage (from UniProt P01133 971-1023; P69538 1-32) (ligand),,binds,binds,binds,no binding,binds

# — patent US20100098681A1
